These are yes or no findings as the source states them, for the method shown. In cells and extracts the contact can be indirect. Some results given as binding are weak or reduced against the parent protein; the word gives no strength.
How the values were obtained:
[1] = molecular target: FLAG-tagged MLL (1-1251aa) (UniProt Q03164); test: co-IP; 293T cells transfected with FLAG-tagged MLL deletion mutants and HA-tagged SHARP1; whole cell lysates; immunoprecipitation with anti-FLAG antibody, 4 °C; blots for FLAG and HA
[2] = molecular target: FLAG-tagged MLL (1-540aa) (UniProt Q03164); test: as above

Protein sequences, listed by entry. Tags and fused reporters are not part of them. Chains listed by the source or under a name are the forms on record and can include a tag or linker. Residues count along the entry.
FLAG-tagged MLL (1-1251aa) (Q03164, residues 1-1251): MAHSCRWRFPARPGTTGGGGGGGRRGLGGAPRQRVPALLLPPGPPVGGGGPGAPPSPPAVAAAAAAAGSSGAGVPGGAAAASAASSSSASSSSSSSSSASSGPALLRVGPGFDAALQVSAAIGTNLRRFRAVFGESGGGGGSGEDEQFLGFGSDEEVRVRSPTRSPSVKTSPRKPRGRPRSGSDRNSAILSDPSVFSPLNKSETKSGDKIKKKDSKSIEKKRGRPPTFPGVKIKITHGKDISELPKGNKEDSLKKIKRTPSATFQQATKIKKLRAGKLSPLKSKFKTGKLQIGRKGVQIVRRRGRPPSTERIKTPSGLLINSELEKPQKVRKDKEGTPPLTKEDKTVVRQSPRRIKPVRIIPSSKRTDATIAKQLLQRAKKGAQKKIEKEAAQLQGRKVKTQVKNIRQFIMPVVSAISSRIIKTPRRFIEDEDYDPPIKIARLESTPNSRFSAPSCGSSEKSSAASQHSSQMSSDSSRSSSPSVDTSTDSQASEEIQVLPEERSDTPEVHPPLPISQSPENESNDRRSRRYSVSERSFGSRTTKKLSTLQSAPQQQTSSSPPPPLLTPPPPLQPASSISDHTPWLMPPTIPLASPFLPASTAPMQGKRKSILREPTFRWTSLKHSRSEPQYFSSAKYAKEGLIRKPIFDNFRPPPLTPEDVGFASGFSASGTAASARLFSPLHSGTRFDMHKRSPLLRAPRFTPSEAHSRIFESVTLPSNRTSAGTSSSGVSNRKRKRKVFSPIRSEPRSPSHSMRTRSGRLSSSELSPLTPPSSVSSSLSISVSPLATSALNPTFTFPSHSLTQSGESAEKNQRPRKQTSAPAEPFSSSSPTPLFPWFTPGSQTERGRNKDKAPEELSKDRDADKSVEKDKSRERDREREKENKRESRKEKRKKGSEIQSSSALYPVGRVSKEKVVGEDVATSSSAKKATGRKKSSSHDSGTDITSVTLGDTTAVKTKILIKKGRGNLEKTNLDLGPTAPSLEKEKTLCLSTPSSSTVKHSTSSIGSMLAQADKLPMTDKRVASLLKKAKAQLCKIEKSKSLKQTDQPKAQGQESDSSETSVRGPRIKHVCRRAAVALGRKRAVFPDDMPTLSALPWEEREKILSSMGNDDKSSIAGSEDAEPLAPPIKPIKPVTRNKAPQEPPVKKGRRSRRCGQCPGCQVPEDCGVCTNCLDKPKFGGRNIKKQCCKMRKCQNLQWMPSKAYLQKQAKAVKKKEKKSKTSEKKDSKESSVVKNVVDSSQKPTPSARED
FLAG-tagged MLL (1-540aa) (Q03164, residues 1-540): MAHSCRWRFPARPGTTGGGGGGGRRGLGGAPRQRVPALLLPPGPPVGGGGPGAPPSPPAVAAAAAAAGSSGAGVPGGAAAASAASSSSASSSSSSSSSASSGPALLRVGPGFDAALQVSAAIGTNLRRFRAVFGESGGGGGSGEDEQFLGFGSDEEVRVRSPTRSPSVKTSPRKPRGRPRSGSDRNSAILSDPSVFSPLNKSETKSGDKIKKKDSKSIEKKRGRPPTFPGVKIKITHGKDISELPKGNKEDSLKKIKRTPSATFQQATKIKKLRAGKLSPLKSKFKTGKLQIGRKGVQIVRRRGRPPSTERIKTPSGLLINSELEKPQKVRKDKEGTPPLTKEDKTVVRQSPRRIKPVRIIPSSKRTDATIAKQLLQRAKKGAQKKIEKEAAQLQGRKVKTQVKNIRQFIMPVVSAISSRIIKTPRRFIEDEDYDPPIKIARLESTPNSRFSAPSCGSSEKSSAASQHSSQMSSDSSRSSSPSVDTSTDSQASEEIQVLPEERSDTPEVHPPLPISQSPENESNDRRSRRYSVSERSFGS
UniProt Q9C0J9: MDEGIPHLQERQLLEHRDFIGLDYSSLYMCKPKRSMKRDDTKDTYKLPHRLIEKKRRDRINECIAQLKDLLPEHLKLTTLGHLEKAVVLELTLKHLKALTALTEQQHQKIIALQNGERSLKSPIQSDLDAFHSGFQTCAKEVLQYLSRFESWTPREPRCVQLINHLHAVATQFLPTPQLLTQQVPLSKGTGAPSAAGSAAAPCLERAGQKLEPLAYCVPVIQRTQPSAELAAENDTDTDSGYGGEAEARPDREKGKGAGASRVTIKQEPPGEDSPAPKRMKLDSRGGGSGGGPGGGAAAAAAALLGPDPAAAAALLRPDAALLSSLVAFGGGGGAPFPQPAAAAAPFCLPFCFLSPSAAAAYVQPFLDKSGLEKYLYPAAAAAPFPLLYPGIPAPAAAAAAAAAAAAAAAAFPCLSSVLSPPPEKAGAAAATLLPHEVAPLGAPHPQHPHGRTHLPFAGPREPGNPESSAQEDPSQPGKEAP

Q: For “HA-tagged SHARP1 (human) (from UniProt Q9C0J9 1-482)”, which binding [1] is on record?
A: binds

Q: And the binding [2]?
A: no binding

Source: paper PMC5915391
